# Experimental data: PubChem BioAssay AID493246 (Drosophila RNAi Screening Center, 2011)
# Assay: 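Identify essential fly genes by loss of cell viability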 (primary screen)
# Cell system: Drosophila Kc and S2R+ cells
# Reagents: long dsRNA against Drosophila genes
# Measured: 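Raw, unnormalised count of remaining cells in each well; per-plate z-scores of cell number underlie the calls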
# Direction: Kc cell number and S2R+ cell number: higher = more cells remaining
# Call rule: 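Counted as a hit if cell number falls by a z-score of at least 3 within its plate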
# The deposit covers about 21,000 reagents; shown is an unselected part of those with a known target gene and a result. Of all reagents, 429 (2%) are marked active. 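Values are raw and not normalised between plates; calls rest on per-plate z-scores that were not deposited.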 A plus sign joins genes that one reagent is predicted to hit. The record does not give: the amount of reagent, the time to read-out.
target gene,dsRNA,"Kc cell number, rep 1","Kc cell number, rep 2","S2R+ cell number, rep 1","S2R+ cell number, rep 2",Call
Eig71Ee (Ecdysone-induced gene 71Ee),DRSC11152,1.39e6,1.81e6,1.40e6,1.61e6,inactive
CG14456,DRSC11713,1.59e6,1.63e6,1.19e6,1.31e6,inactive
CG8562,DRSC10995,1.45e6,1.31e6,1.09e6,1.19e6,inactive
cerv (cervantes),DRSC19681,1.40e6,1.44e6,1.02e6,1.11e6,inactive
CG10283,DRSC02034,1.34e6,1.34e6,1.28e6,1.07e6,inactive
Csp (Cysteine string protein),DRSC11860,1.63e6,1.64e6,1.38e6,1.38e6,inactive
Amnionless,DRSC00317,1.60e6,1.62e6,1.19e6,1.34e6,inactive
tea (telomere ends associated),DRSC06110,1.26e6,1.33e6,1.02e6,1.10e6,inactive
tea (telomere ends associated),DRSC06236,1.44e6,1.48e6,1.13e6,1.30e6,inactive
Rpe (Ribulose-5-phosphate-3-epimerase),DRSC06407,9.52e5,1.45e6,8.61e5,9.78e5,inactive
CG31551,DRSC12159,1.32e6,1.34e6,1.10e6,1.22e6,inactive
Pgcl (Pepsinogen C-like),DRSC18815,1.57e6,1.58e6,9.99e5,1.17e6,inactive

Only “S2R+ cell number, rep 1”, for 4 of the entries above:
Csp (Cysteine string protein) [DRSC11860]: 1.38e6
Amnionless [DRSC00317]: 1.19e6
tea (telomere ends associated) [DRSC06110]: 1.02e6
tea (telomere ends associated) [DRSC06236]: 1.13e6

Continued:
target gene,dsRNA,"Kc cell number, rep 1","Kc cell number, rep 2","S2R+ cell number, rep 1","S2R+ cell number, rep 2",Call
sro (shroud),DRSC14469,1.36e6,1.30e6,9.47e5,1.08e6,inactive
CG3566,DRSC18311,1.79e6,1.74e6,1.17e6,1.28e6,inactive
CheA87a (Chemosensory protein A 87a),DRSC14839,1.38e6,1.37e6,1.08e6,1.18e6,inactive
Nipsnap,DRSC20169,5.94e5,,9.08e5,,inactive
fw (furrowed),DRSC20334,1.52e6,1.48e6,1.10e6,1.15e6,inactive
Indy-2 + CG33934,DRSC15685,1.53e6,1.57e6,1.25e6,1.26e6,inactive
Indy-2 + CG33934,DRSC15686,1.42e6,1.44e6,1.02e6,1.10e6,inactive
CG4332,DRSC19890,5.33e5,,9.03e5,,inactive
gry (gryzun),DRSC08028,1.51e6,1.36e6,1.05e6,1.15e6,inactive
gry (gryzun),DRSC08518,1.39e6,1.45e6,1.20e6,1.14e6,inactive
CG1113,DRSC12163,1.62e6,1.68e6,1.30e6,1.49e6,inactive
CG42582 (retired record),DRSC20675,1.41e6,1.70e6,1.26e6,1.22e6,inactive
